A short description of one test: PubChem AID 1586. The settings on record: yeast two-hybrid polyglutamine protein interaction, reporter readout; measured here: averaged growth delta OD.
A short description of test [1]: enhancers of SMN2 over SMN1 splicing, cell-based, SMN2/SMN1 luciferase reporters (AID 1598). The settings on record: SMN2 vs SMN1 luciferase splicing reporter cells, at 10 µM; SMN1 luciferase ratio: measured here: SMN1 luciferase reporter average; SMN2 luciferase ratio: measured here: SMN2 luciferase reporter average, stronger effect = higher value.
The nature of test [2]: protection against mutant huntingtin cytotoxicity, PC12 cells, LDH release (AID 1610). The note with it: PC12 mutant huntingtin toxicity, final LDH at 4 uM, stronger effect = lower value.

“And” between values parts separate entries of the source, which are not always exact repeats. Equal values may be shown once. The list shows a part of the results. Further columns of the screen follow, without active or inactive calls. For some assays here: The list favours compounds with an active or inconclusive main result.

`O=C(OCC(O)CO)c1ccccc1Nc1ccnc2cc(Cl)ccc12` (stereo not drawn) showed a signal change (36 h minus 0 h) in the test “PubChem AID 1586” of 0.148. In addition, in test [1], the SMN1 luciferase ratio amounted to 0.9 and the SMN2 luciferase ratio came to 0.97. Further, the normalised LDH release in test [2] came to 1.01.
The like results for `CCn1cc(C(=O)O)c(=O)c2cc(F)c(N3CCNCC3)nc21` were, in that order, 0.209, 0.91, 0.96 and 1.47.
For `CC(=O)O[C@H]1C[C@@]2(C)[C@@H](C[C@@H](O)C3[C@]2(C)CC[C@H]2[C@H](C)[C@H](O)CC[C@]32C)/C1=C(/CCC=C(C)C)C(=O)O` (stereo partly drawn), the signal change (36 h minus 0 h) in “PubChem AID 1586” was 0.184. In test [1], the SMN1 luciferase ratio was 0.82 and the SMN2 luciferase ratio came out at 0.93. Further, the normalised LDH release in test [2] came out at 0.873.
The like results for `CC(C)(Sc1cc(C(C)(C)C)c(O)c(C(C)(C)C)c1)Sc1cc(C(C)(C)C)c(O)c(C(C)(C)C)c1` were, in that order, 0.0992, 0.93, 0.9 and 0.587.
Compound `CCN(CC)CCNC(=O)c1cc(Br)c(N)cc1OC` showed a signal change (36 h minus 0 h) in the test “PubChem AID 1586” of 0.0644. Further, in test [1], the SMN1 luciferase ratio stood at 0.9 and the SMN2 luciferase ratio was found to be 0.84. Moreover, in test [2], the normalised LDH release came to 0.994.
For the compound `NCC1OC(OC2C(N)CC(N)C(OC3OC(CO)C(O)C(N)C3O)C2O)C(N)C(O)C1O` (stereo not drawn), in the test “PubChem AID 1586”, the signal change (36 h minus 0 h) stood at 0.253. Besides, in test [1], the SMN1 luciferase ratio is 0.91 and the SMN2 luciferase ratio was 0.94. The normalised LDH release in test [2] was determined as 1.12.
In “PubChem AID 1586”, `C#C[C@]1(OC(C)=O)CCC2C3CCC4=CC(=O)CC[C@@H]4C3CC[C@@]21C` (stereo partly drawn) had a signal change (36 h minus 0 h) of -0.0149. In test [1], the SMN1 luciferase ratio amounted to 0.86 and the SMN2 luciferase ratio is 0.84. The normalised LDH release in test [2] was 0.866.
As for `CC(=O)Nc1ccccc1`, the signal change (36 h minus 0 h) in “PubChem AID 1586” is 0.0466 and 0.103. Also, in test [1], the SMN1 luciferase ratio was 0.85 and 0.86; the SMN2 luciferase ratio was 0.97 and 0.88. For the same compound, the normalised LDH release in test [2] was 0.803 and 1.04.
On to `CN(C)CCCN1c2ccccc2CCc2ccc(Cl)cc21`, for which the signal change (36 h minus 0 h) in “PubChem AID 1586” stood at 0.182. Further, in test [1], the SMN1 luciferase ratio was found to be 0.83 and the SMN2 luciferase ratio stood at 0.82. In test [2], this compound displayed a normalised LDH release of 1.03.
Regarding `O=c1cc(-c2ccccc2)oc2c(O)c(O)ccc12`, the signal change (36 h minus 0 h) in “PubChem AID 1586” was 0.149. In test [1], the SMN1 luciferase ratio was 1.01 and the SMN2 luciferase ratio was determined as 0.82. This compound yielded a normalised LDH release in test [2] of 0.318.
`NC(=O)NC1NC(=O)NC1=O` (stereo not drawn) returned a signal change (36 h minus 0 h) in “PubChem AID 1586” of 0.0912. For the same compound, in test [1], the SMN1 luciferase ratio came out at 0.92 and the SMN2 luciferase ratio was found to be 0.9. The normalised LDH release in test [2] was 0.996.
`O=c1ccn([C@@H]2O[C@H](COP(=O)(O)OP(=O)(O)OP(=O)(O)O)[C@@H](O)[C@H]2O)c(=O)[nH]1` had a signal change (36 h minus 0 h) in the test “PubChem AID 1586” of 0.113. For the same compound, in test [1], the SMN1 luciferase ratio came to 0.96 and the SMN2 luciferase ratio stood at 0.86. The compound also returned a normalised LDH release in test [2] of 0.935.
As to `C=Cc1c(C)c2cc3[nH]c(cc4nc(cc5nc(cc1[nH]2)C(C)=C5CCC(=O)O)C(CCC(=O)O)=C4C)c(C)c3C=C`, the signal change (36 h minus 0 h) in the test “PubChem AID 1586” is 0.0938. For the same compound, in test [1], the SMN1 luciferase ratio came out at 0.79 and the SMN2 luciferase ratio amounted to 0.77. Moreover, in test [2], the normalised LDH release is 0.612.
The like results for `c1ccc2c(CC3=NCCN3)cccc2c1` were, in that order, 0.21, 0.86, 0.91 and 0.46.
`CC(N)CCCC(C)(C)O` (stereo not drawn): in the test “PubChem AID 1586”, the signal change (36 h minus 0 h) turned out to be 0.314. Also, in test [1], the SMN1 luciferase ratio amounted to 0.86 and the SMN2 luciferase ratio was found to be 0.86. Further, the normalised LDH release in test [2] amounted to 0.929.
With `CCCCCC(=O)O[C@]1(C(C)=O)CCC2C3CCC4=CC(=O)CC[C@]4(C)C3CC[C@@]21C` (stereo partly drawn), in “PubChem AID 1586”, the signal change (36 h minus 0 h) was -0.181. Also, in test [1], the SMN1 luciferase ratio was determined as 0.82 and the SMN2 luciferase ratio was found to be 0.88. Moreover, in test [2], the normalised LDH release was found to be 0.823.
In the case of `NC(=O)c1ccc[n+]([C@@H]2O[C@H](COP(=O)([O-])OP(=O)(O)OC[C@H]3O[C@@H](n4cnc5c(N)ncnc54)[C@H](O)[C@@H]3O)[C@@H](O)[C@H]2O)c1`, in “PubChem AID 1586”, the signal change (36 h minus 0 h) is 0.165. Moreover, in test [1], the SMN1 luciferase ratio is 0.87 and the SMN2 luciferase ratio was 0.91. Besides, the normalised LDH release in test [2] worked out at 0.942.
`NC(Cc1ccc(Cl)cc1)C(=O)O` (stereo not drawn) came in with a signal change (36 h minus 0 h) in “PubChem AID 1586” of 0.164. Further, in test [1], the SMN1 luciferase ratio amounted to 0.97 and the SMN2 luciferase ratio is 0.91. In test [2], this compound registered a normalised LDH release of 0.45.
As to `O=C(C1CCCCC1)N1CC(=O)N2CCc3ccccc3C2C1` (stereo not drawn), the signal change (36 h minus 0 h) in the test “PubChem AID 1586” was determined as 0.231. In test [1], the SMN1 luciferase ratio was 0.86 and the SMN2 luciferase ratio was found to be 0.89. In test [2], this compound gave a normalised LDH release of 0.97.
As to `CCCCNc1cc(C(=O)O)cc(S(N)(=O)=O)c1Oc1ccccc1`, the signal change (36 h minus 0 h) in “PubChem AID 1586” came to 0.0208. Further, in test [1], the SMN1 luciferase ratio is 0.88 and the SMN2 luciferase ratio was determined as 0.81. Further, the normalised LDH release in test [2] turned out to be 0.839.
For `CCC(Cc1c(I)cc(I)c(N)c1I)C(=O)O` (stereo not drawn), in the test “PubChem AID 1586”, the signal change (36 h minus 0 h) stood at 0.063. In test [1], the SMN1 luciferase ratio was found to be 0.96 and the SMN2 luciferase ratio came out at 0.88. This compound displayed a normalised LDH release in test [2] of 1.22.
On to `Clc1ccc(C(c2ccccc2Cl)C(Cl)Cl)cc1` (stereo not drawn), for which the signal change (36 h minus 0 h) in the test “PubChem AID 1586” was determined as 0.395. Besides, in test [1], the SMN1 luciferase ratio came out at 0.96 and the SMN2 luciferase ratio was 0.92. The normalised LDH release in test [2] stood at 0.751.
Consider `CC[C@H](C)C(=O)O[C@H]1C[C@@H](C)C=C2C=C[C@H](C)[C@H](CC[C@@H]3C[C@@H](O)CC(=O)O3)[C@H]21`, for which the signal change (36 h minus 0 h) in “PubChem AID 1586” was 0.133. Moreover, in test [1], the SMN1 luciferase ratio was determined as 1.04 and the SMN2 luciferase ratio is 1.02. The normalised LDH release in test [2] is 0.965.
Take `NCc1ccc(S(N)(=O)=O)cc1`: the signal change (36 h minus 0 h) in the test “PubChem AID 1586” turned out to be 0.141. In test [1], the SMN1 luciferase ratio was determined as 0.8 and the SMN2 luciferase ratio is 0.74. Further, the normalised LDH release in test [2] is 0.958.
The like results for `CCCn1c(=O)c2[nH]c(C3CCCC3)nc2n(CCC)c1=O` were, in that order, 0.193, 0.86, 0.9 and 0.968.
The like results for `COC(=O)[C@H]1[C@H]2C[C@H]3c4[nH]c5cc(OC)ccc5c4CCN3C[C@H]2C[C@@H](OC(=O)c2cc(OC)c(OC)c(OC)c2)[C@@H]1OC` were, in that order, 0.163, 0.87, 0.95 and 0.577.
`Nc1ccc(C(=O)O)c(O)c1` (tested in a mixture with another compound) registered a signal change (36 h minus 0 h) in the test “PubChem AID 1586” of 0.0954. For the same compound, in test [1], the SMN1 luciferase ratio was 0.84 and the SMN2 luciferase ratio worked out at 0.84. Further, the normalised LDH release in test [2] was 0.666.
In “PubChem AID 1586”, `NC[C@@H]1O[C@H](O[C@@H]2[C@@H](CO)OC(O[C@@H]3[C@@H](O)[C@H](N)C[C@H](N)[C@H]3OC3O[C@H](CN)[C@@H](O)[C@H](O)[C@H]3N)[C@@H]2O)[C@H](N)[C@@H](O)[C@@H]1O` (stereo partly drawn) gave a signal change (36 h minus 0 h) of 0.0664. In test [1], the SMN1 luciferase ratio is 0.9 and the SMN2 luciferase ratio came to 0.87. Moreover, the normalised LDH release in test [2] turned out to be 1.12.
On to `NC(=O)c1ccccc1O`, for which the signal change (36 h minus 0 h) in the test “PubChem AID 1586” amounted to 0.0868. In test [1], the SMN1 luciferase ratio is 0.89 and the SMN2 luciferase ratio stood at 0.97. In addition, the normalised LDH release in test [2] came to 1.11.
`O=c1c(-c2ccc(O)cc2)coc2cc(O)ccc12` registered a signal change (36 h minus 0 h) in “PubChem AID 1586” of 0.486. Moreover, in test [1], the SMN1 luciferase ratio stood at 1.09 and the SMN2 luciferase ratio is 1.11. This compound returned a normalised LDH release in test [2] of 1.05.
In the case of `C[C@H](CCC(=O)O)[C@H]1CCC2C3C(CC[C@@]21C)[C@@]1(C)CC[C@@H](O)C[C@H]1C[C@@H]3O` (stereo partly drawn), the signal change (36 h minus 0 h) in the test “PubChem AID 1586” is 0.195. In test [1], the SMN1 luciferase ratio amounted to 0.92 and the SMN2 luciferase ratio worked out at 1.05. The compound further had a normalised LDH release in test [2] of 0.625.
Compound `CCN(CC)Cc1ccc(Nc2ccnc3cc(Cl)ccc23)cc1O` had a signal change (36 h minus 0 h) in “PubChem AID 1586” of 0.0679. Further, in test [1], the SMN1 luciferase ratio stood at 0.91 and the SMN2 luciferase ratio was 0.84. In addition, the normalised LDH release in test [2] is 0.875.

For the origin of these results see PubChem BioAssay.
